From patent publication US11046889B2, “Polymerizable compound and optically anisotropic body” (DIC Corporation, priority 2015, dated 2021) come the findings set out here.

The data set can be described thus: Adhesiveness of UV-cured coating film by cross cutting method (JIS K5600-5-6). The settings on record: coating film from 18.9% compound, 1% Irgacure 907, 0.1% 4-methoxyphenol, 80% chloroform; UV 40 mW/cm^2 for 25 seconds; 2 mm-square grid cross cut.
In the case of `C=CC(=O)OCCOCCOCCOc1ccc(C(=O)Oc2ccc(-c3ccc(CCC)cc3)cc2/C=N/Nc2nc3ccccc3s2)cc1` [Compound I-1], the Results of adhesiveness result is “Class 2 (the coating film is peeled along the cutting line at intersections (5% or more and less than 15%).)”.
For the compound `C=CC(=O)OCCOCCOCCOc1ccc(OC(=O)C2CCC(C(=O)Oc3ccc(C4CCC(CCC)CC4)cc3/C=N/Nc3nc4ccccc4s3)CC2)cc1` (centres unmarked) [Compound I-2], the Results of adhesiveness result was “Class 2 (the coating film is peeled along the cutting line at intersections (5% or more and less than 15%).)”.
In the case of `C=CC(=O)OCCOCCOCCOc1ccc(OC(=O)C2CCC(C(=O)Oc3ccc(C4CCC(CCC)CC4)cc3/C=N/N(CCCCCC)c3nc4ccccc4s3)CC2)cc1` (centres unmarked) [Compound I-3], the Results of adhesiveness result is “Class 2 (the coating film is peeled along the cutting line at intersections (5% or more and less than 15%).)”.
For the compound `C=CC(=O)OCCOCCOCCOc1ccc(OC(=O)C2CCC(C(=O)Oc3ccc(C4CCC(C5CCC(CCC)CC5)CC4)cc3/C=N/N(CCCCCC)c3nc4ccccc4s3)CC2)cc1` (centres unmarked) [Compound I-4], the Results of adhesiveness entry was “Class 2 (the coating film is peeled along the cutting line at intersections (5% or more and less than 15%).)”.
Turning to `C=CC(=O)OCCOCCOCCOc1ccc(OC(=O)C2CCC(COc3ccc(OCC4CCC(C(=O)Oc5ccc(OCCOCCOCCOC(=O)C=C)cc5)CC4)c(/C=N/N(CCCCCC)c4nc5ccccc5s4)c3)CC2)cc1` (centres unmarked) [Compound I-5], the Results of adhesiveness result was “Class 2 (the coating film is peeled along the cutting line at intersections (5% or more and less than 15%).)”.
Take `C=CC(=O)OCCCCCCOc1ccc(OC(=O)C2CCC(COc3ccc(OCC4CCC(C(=O)Oc5ccc(OCCCCCCOC(=O)C=C)cc5)CC4)c(/C=N/N(CCOCCOC)c4nc5ccccc5s4)c3)CC2)cc1` (centres unmarked) [Compound I-6]: the Results of adhesiveness entry was “Class 2 (the coating film is peeled along the cutting line at intersections (5% or more and less than 15%).)”.
Turning to `C=CC(=O)OCCCCCCOc1ccc(OC(=O)C2CCC(C(=O)Oc3ccc(C4CCC(CCC)CC4)cc3/C=N/N(CCOCCOC)c3nc4ccccc4s3)CC2)cc1` (centres unmarked) [Compound I-7], the Results of adhesiveness entry was “Class 2 (the coating film is peeled along the cutting line at intersections (5% or more and less than 15%).)”.
For `C=CC(=O)OCCCOc1ccc(OC(=O)C2CCC(COc3ccc(OCC4CCC(C(=O)Oc5ccc(OCCCOC(=O)C=C)cc5)CC4)c(/C=N/N(CCOCCOC)c4nc5ccccc5s4)c3)CC2)cc1` (centres unmarked) [Compound I-8], the Results of adhesiveness result is “Class 2 (the coating film is peeled along the cutting line at intersections (5% or more and less than 15%).)”.
For `C=CC(=O)OCCCCCCOc1ccc(OC(=O)C2CCC(COc3ccc(OCC4CCC(C(=O)Oc5ccc(OCCCCCCOC(=O)C=C)cc5)CC4)c(/C=N/N(CCOCCOCCOC(=O)C=C)c4nc5ccccc5s4)c3)CC2)cc1` (centres unmarked) [Compound I-9], the Results of adhesiveness result was “Class 1 (a little peeling of the coating film is found at intersections of the cutting (less than 5%).)”.
For `C=CC(=O)OCCCCCCOc1ccc(OC(=O)C2CCC(COc3ccc(C4CCC(CCC)CC4)cc3/C=N/N(CCOCCOC)c3nc4ccccc4s3)CC2)cc1` (centres unmarked) [Compound I-10] the value was “Class 2 (the coating film is peeled along the cutting line at intersections (5% or more and less than 15%).)”; for `C=CC(=O)OCCCCCCOc1ccc(OC(=O)C2CCC(COc3ccc(-c4ccc(CCC)cc4)c(/C=N/N(CCOCCOC)c4nc5ccccc5s4)c3)CC2)cc1` (centres unmarked) [Compound I-11], “Class 2 (the coating film is peeled along the cutting line at intersections (5% or more and less than 15%).)”; for `C=CC(=O)OCCOCCOCCOc1ccc(OC(=O)C2CCC(C(=O)Oc3ccc(OC(=O)C4CCC(C(=O)Oc5ccc(OCCOCCOCCOC(=O)C=C)cc5)CC4)c4sc(-c5ccc([N+](=O)[O-])cc5)nc34)CC2)cc1` (centres unmarked) [Compound I-12], “Class 2 (the coating film is peeled along the cutting line at intersections (5% or more and less than 15%).)”.
For the compound `C=CC(=O)OCCOCCOc1ccc(OC(=O)C2CCC(C(=O)Oc3ccc(OC(=O)C4CCC(C(=O)Oc5ccc(OCCOCCOC(=O)C=C)cc5)CC4)c4sc(-c5cc6c(C)cc(C)cc6o5)nc34)CC2)cc1` (centres unmarked) [Compound I-13], the Results of adhesiveness result was “Class 3 (the coating film is peeled partially or entirely along the cutting line (15% or more and less than 35%).)”.
`C=CC(=O)OCCOCCOC(=O)C1CCC(C(=O)OC2CCC(C(=O)Oc3ccc(OC(=O)C4CCC(OC(=O)C5CCC(C(=O)OCCOCCOC(=O)C=C)CC5)CC4)c4c3SC(=C3C(=O)N(c5ccccc5)N=C3C(=O)OCC)S4)CC2)CC1` (centres unmarked) [Compound I-14]: the Results of adhesiveness entry is “Class 3 (the coating film is peeled partially or entirely along the cutting line (15% or more and less than 35%).)”.
In the case of `C=CC(=O)OCCCCOC(=O)C1CCC(C(=O)OC2CCC(C(=O)Oc3ccc(OC(=O)C4CCC(OC(=O)C5CCC(C(=O)OCCCCOC(=O)C=C)CC5)CC4)c4c3SC(=C(C#N)C(=O)OCCOCCOC(=O)C=C)S4)CC2)CC1` (centres unmarked) [Compound I-15] it was “Class 3 (the coating film is peeled partially or entirely along the cutting line (15% or more and less than 35%).)”; in that of `C=C(C)C(=O)OCCCCCCOc1ccc(OC(=O)C2CCC(COc3ccc(OCC4CCC(C(=O)Oc5ccc(OCCCCCCOC(=O)C(=C)C)cc5)CC4)c(/C=N/N(CCOCCOC)c4nc5ccccc5s4)c3)CC2)cc1` (centres unmarked) [Compound I-16], “Class 2 (the coating film is peeled along the cutting line at intersections (5% or more and less than 15%).)”.
Turning to `C=CC(=O)OCCCCCCOc1ccc(OC(=O)C2CCC(C(=O)Oc3ccc(C4CCC(C5CCC(CCC)CC5)CC4)cc3/C=N/N(CCOCCOC)c3nc4ccccc4s3)CC2)cc1` (centres unmarked) [Compound I-17], the Results of adhesiveness result was “Class 2 (the coating film is peeled along the cutting line at intersections (5% or more and less than 15%).)”.
Regarding `C=CC(=O)OCCCCCCOc1ccc(OC(=O)C2CCC(C(=O)Oc3ccc(OC(=O)C4CCC(C(=O)Oc5ccc(OCCCCCCOC(=O)C=C)cc5)CC4)c(/C=N/N(COCCOC)c4nc5ccccc5s4)c3)CC2)cc1` (centres unmarked) [Compound R-1, reference compound], the Results of adhesiveness entry is “Class 3 (the coating film is peeled partially or entirely along the cutting line (15% or more and less than 35%).)”.
As to `C=CC(=O)OCCCCCCOc1ccc(OC(=O)C2CCC(C(=O)Oc3ccc(OC(=O)C4CCC(C(=O)Oc5ccc(OCCCCCCOC(=O)C=C)cc5)CC4)c4sc(-c5ccc([N+](=O)[O-])cc5)nc34)CC2)cc1` (centres unmarked) [Compound R-2, reference compound], the Results of adhesiveness entry is “Class 4 (the coating film is largely peeled partially or entirely along the cutting line (35% or more and less than 65%).)”.
Consider `C=CC(=O)OCCCOC(=O)C1CCC(C(=O)OC2CCC(C(=O)Oc3ccc(OC(=O)C4CCC(OC(=O)C5CCC(C(=O)OCCCOC(=O)C=C)CC5)CC4)c4c3SC(=C3C(=O)N(c5ccccc5)N=C3C(=O)OCC)S4)CC2)CC1` (centres unmarked) [Compound R-3, reference compound], for which the Results of adhesiveness result was “Class 4 (the coating film is largely peeled partially or entirely along the cutting line (35% or more and less than 65%).)”.
